{"source": "PubChem BioAssay AID602196 (INSERM, 2012)", "purpose": "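Modifiers of cisplatin sensitivity in A549 cells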", "cell system": "human A549 lung cancer cells", "reagent": "siRNA pair against human genes", "timing": "48 h transfection before cisplatin; time from cisplatin to read-out not stated", "treatment": "cisplatin at a dose killing half of control-siRNA cells; exact dose and duration not given", "measurement": "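Shift in cisplatin death relative to control siRNA, from -50 (all cells die) to +50 (no cells die); siRNAs harmful on their own scored 0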", "direction": "two-siRNA summed score (-2 to +2): higher = both siRNAs protect from cisplatin killing; -2 means both sensitise; mean protection from cisplatin (shift in death): higher = protection from cisplatin killing", "hit rule": "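Each siRNA scores 0 if harmful alone by LDH or WST-1, otherwise +1 if it reduces and -1 if it increases cisplatin killing; a gene is active when both siRNAs agree (sum +2 or -2)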", "calls": "active = both siRNAs shift cisplatin killing the same way; inactive = no consistent shift, or siRNA harmful alone", "note": "The deposit covers about 23,000 reagents; shown is an unselected part. 455 of all reagents (2%) count as active. 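Active includes both protection and sensitisation; some change values fall well beyond the stated -50 to +50 range.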 A number with no mark means an inactive call. Further read-outs or replicates are left out here. The record does not give: the amount of reagent."}
{"gene knocked down": "OR8K5", "two-siRNA summed score (-2 to +2)": 0, "mean protection from cisplatin (shift in death) (%)": 12.7}
{"gene knocked down": "ENHO", "two-siRNA summed score (-2 to +2)": 0, "mean protection from cisplatin (shift in death) (%)": 10.8}
{"gene knocked down": "CRYBB3", "two-siRNA summed score (-2 to +2)": -1, "mean protection from cisplatin (shift in death) (%)": -13.5}
{"gene knocked down": "ZNF668", "two-siRNA summed score (-2 to +2)": 0, "mean protection from cisplatin (shift in death) (%)": 6}
{"gene knocked down": "LOC399983", "two-siRNA summed score (-2 to +2)": 0, "mean protection from cisplatin (shift in death) (%)": 1.9}
{"gene knocked down": "IFNA16", "two-siRNA summed score (-2 to +2)": 0, "mean protection from cisplatin (shift in death) (%)": -4.5}
{"gene knocked down": "LOC441467", "two-siRNA summed score (-2 to +2)": 1, "mean protection from cisplatin (shift in death) (%)": 2.9}
{"gene knocked down": "ZNF263", "two-siRNA summed score (-2 to +2)": 0, "mean protection from cisplatin (shift in death) (%)": 14.5}
{"gene knocked down": "LOC441920", "two-siRNA summed score (-2 to +2)": 0, "mean protection from cisplatin (shift in death) (%)": 4.4}
{"gene knocked down": "LOC442597", "two-siRNA summed score (-2 to +2)": 0, "mean protection from cisplatin (shift in death) (%)": 8}
{"gene knocked down": "LOC401123 (retired record)", "two-siRNA summed score (-2 to +2)": 0, "mean protection from cisplatin (shift in death) (%)": 7.1}
{"gene knocked down": "LOC400041", "two-siRNA summed score (-2 to +2)": 1, "mean protection from cisplatin (shift in death) (%)": 15}

2 neighbouring reagents already listed:
{"gene knocked down": "CRYBB3", "two-siRNA summed score (-2 to +2)": -1, "mean protection from cisplatin (shift in death) (%)": -13.5}
{"gene knocked down": "ZNF668", "two-siRNA summed score (-2 to +2)": 0, "mean protection from cisplatin (shift in death) (%)": 6}
